Experimental data published in publication PMC7555550.
No constants are given. Whether binding was seen depends on the method and setting. In cells and extracts the contact can be indirect. Binding can be weak; no strength is given. Tags and fused reporters may be left off the sequences shown.

The chains behind the UniProt entries cited, without tags or fusion partners. Where a name states a change or a piece, a line headed by the entry shows the natural chain unless it says otherwise.
UniProt Q8IXL6: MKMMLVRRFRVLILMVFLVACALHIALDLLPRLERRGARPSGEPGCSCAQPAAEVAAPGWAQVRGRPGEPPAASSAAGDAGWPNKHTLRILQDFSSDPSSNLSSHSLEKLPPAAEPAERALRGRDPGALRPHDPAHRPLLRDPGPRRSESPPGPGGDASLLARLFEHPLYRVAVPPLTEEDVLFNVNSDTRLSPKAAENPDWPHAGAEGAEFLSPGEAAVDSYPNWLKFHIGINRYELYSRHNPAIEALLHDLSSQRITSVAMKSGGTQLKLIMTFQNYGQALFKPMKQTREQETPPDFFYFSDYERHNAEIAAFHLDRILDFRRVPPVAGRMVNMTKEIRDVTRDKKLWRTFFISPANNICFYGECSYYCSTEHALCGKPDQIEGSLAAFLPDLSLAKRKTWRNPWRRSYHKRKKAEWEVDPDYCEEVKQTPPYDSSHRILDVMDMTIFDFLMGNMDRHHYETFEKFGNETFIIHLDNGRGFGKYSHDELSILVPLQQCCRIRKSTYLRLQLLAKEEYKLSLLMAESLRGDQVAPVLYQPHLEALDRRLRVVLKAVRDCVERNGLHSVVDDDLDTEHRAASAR

Target: FAM20C-P328S-V5/His (human) (UniProt Q8IXL6)
Assay: co-IP; HEK 293 cells transiently co-transfected; cell lysates 24 h after transfection immunoprecipitated with anti-V5 antibody, Western blot with anti-HA antibody

B1: mouse Periostin with C-terminal HA tag (pCAGI-puro delta Periostin (b-)-WT-HA) (protein, UniProt Q62009-2 24-811)
chain: NSYYDKVLAHSRIRGRDQGPNVCALQQILGTKKKYFSSCKNWYQGAICGKKTTVLYECCPGYMRMEGMKGCPAVMPIDHVYGTLGIVGATTTQHYSDVSKLREEIEGKGSYTYFAPSNEAWENLDSDIRRGLENNVNVELLNALHSHMVNKRMLTKDLKHGMVIPSMYNNLGLFINHYPNGVVTVNCARVIHGNQIATNGVVHVIDRVLTQIGTSIQDFLEAEDDLSSFRAAAITSDLLESLGRDGHFTLFAPTNEAFEKLPRGVLERIMGDKVASEALMKYHILNTLQCSEAITGGAVFETMEGNTIEIGCEGDSISINGIKMVNKKDIVTKNGVIHLIDEVLIPDSAKQVIELAGKQQTTFTDLVAQLGLASSLKPDGEYTLLAPVNNAFSDDTLSMDQRLLKLILQNHILKVKVGLSDLYNGQILETIGGKQLRVFVYRTAICIENSCMVRGSKQGRNGAIHIFREIIQPAEKSLHDKLRQDKRFSIFLSLLEAADLKDLLTQPGDWTLFAPTNDAFKGMTSEERELLIGDKNALQNIILYHLTPGVYIGKGFEPGVTNILKTTQGSKIYLKGVNETLLVNELKSKESDIMTTNGVIHVVDKLLYPADIPVGNDQLLELLNKLIKYIQIKFVRGSTFKEIPMTVYRPAMTKIQIEGDPDFRLIKEGETVTEVIHGEPVIKKYTKIIDGVPVEITEKQTREERIITGPEIKYTRISTGGGETGETLQKFLQKEVSKVTKFIEGGDGHLFEDEEIKRLLQGDTPAKKIPANKRVQGPRRRSREGRSQ
Question: How did the binding turn out when B1 was run?
Answer: The binding was “binds”.
